Laboratory results from patent US20140294873A1, “SMALL MOLECULE SCREEN FOR INHIBITORS OF NFAT: AP-1: DNA INTERACTIONS” (CHILDREN'S MEDICAL CENTER CORPORATION, priority 2011, published 2014).
Construct, isoform or probe ends are uncertain for at least one entry.

Test system: Fos bZIP (I142C, Oregon Green 488) / Jun bZIP heterodimer (AP-1)
Test: competition with a labelled probe
Conditions: purified recombinant protein; protein details: Oregon Green 488-maleimide on Fos Cys142

TCTCCTATGACTCATCC (double strand) [consensus AP-1 oligo]
binding result: binds
